{"source": "patent US10888533B2", "about": "(ICURE PHARMACEUTICAL INC., priority 2014, dated 2021)", "conditions": "human, po"}
{"smiles": "COc1cc2c(cc1OC)C(=O)C(CC1CCN(Cc3ccccc3)CC1)C2", "note": "(racemic) [donepezil, (±)-2,3-dihydro-5,6-dimethoxy-2-[[1-(phenylmethyl)-4-piperidinyl]methyl]-1H-inden-1-one]", "values": [{"measurement": "required skin permeation rate", "result": "approximately 4.134 μg/cm^2/hr"}]}
